Values quoted from earlier work, collected in US20110184057A1, “PARENTERAL TREATMENT WITH STATINS” (priority 2008, published 2011).
For at least one compound, name, drawing or mass did not settle the structure.

Key:
BMPR2 = conditions: microvascular endothelial cells; cited from earlier work
BMP2 = conditions: osteoblastic cells; cited from earlier work
osteoblast = conditions: BMP independent manner; cited from earlier work

| Structure (SMILES) | steady-state BMPR2 expression (BMPR2) | expression of BMP2 (BMP2) | osteoblast calcification (osteoblast) |
| --- | --- | --- | --- |
| CCC(C)(C)C(=O)O[C@H]1C[C@@H](C)C=C2C=C[C@H](C)[C@H](CC[C@@H]3C[C@@H](O)CC(=O)O3)[C@H]21 [simvastatin] | enhances steady-state BMPR2 and expression | increases expression of BMP2 |  |
| CC(C)n1c(/C=C/C(O)CC(O)CC(=O)O)c(-c2ccc(F)cc2)c2ccccc21 (stereo not shown) [fluvastatin] |  |  | induce osteoblast calcification |
| CC[C@H](C)C(=O)O[C@H]1C[C@H](O)C=C2C=C[C@H](C)[C@H](CC[C@@H](O)C[C@@H](O)CC(=O)O)[C@H]21 [pravastatin] |  |  | not |
